Data published in the supplement of paper PMC3334620.
In all, about 33,000 sequences were measured (“E-score (-0.5 to 0.5)”: median about -0.015, highest 2% from about 0.3 on). The list shows a part of the results.

These sequences were tested against T1, Abf1 (UniProt P14164) (assay: PBM E-score (8-mer binding enrichment) (E-score (-0.5 to 0.5)); higher = stronger / more preferred TF binding). Conditions: protein concentration: 200 nM; construct: GST-full length.
T1 sequence: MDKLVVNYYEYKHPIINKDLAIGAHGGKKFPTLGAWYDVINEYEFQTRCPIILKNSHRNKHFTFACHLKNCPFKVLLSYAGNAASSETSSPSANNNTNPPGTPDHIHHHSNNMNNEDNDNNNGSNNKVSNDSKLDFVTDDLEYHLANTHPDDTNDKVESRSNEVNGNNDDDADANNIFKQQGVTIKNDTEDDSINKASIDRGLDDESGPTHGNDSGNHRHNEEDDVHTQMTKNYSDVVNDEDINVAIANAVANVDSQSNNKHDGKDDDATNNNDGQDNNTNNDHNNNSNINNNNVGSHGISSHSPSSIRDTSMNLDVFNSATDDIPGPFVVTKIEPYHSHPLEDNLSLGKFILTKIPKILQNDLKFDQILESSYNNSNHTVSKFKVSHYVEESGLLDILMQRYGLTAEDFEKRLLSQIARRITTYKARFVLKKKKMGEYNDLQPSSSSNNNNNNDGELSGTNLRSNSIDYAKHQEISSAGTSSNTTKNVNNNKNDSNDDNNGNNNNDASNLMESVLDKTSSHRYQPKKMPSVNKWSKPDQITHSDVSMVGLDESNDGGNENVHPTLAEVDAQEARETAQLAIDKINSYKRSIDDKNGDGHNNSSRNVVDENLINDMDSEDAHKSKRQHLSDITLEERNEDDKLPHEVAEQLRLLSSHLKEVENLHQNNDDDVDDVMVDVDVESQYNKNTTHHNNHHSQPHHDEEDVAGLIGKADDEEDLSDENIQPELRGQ
Method: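 Universal 'all 10-mer' protein binding microarrays (Agilent AMADID 015681) probed with GST-tagged S. cerevisiae TFs (full-length or DBD) made by in vitro transcription/translation (PURExpress), about 100-200 nM. Bound TF was detected with fluorescent anti-GST. Each ungapped 8-mer (which stands for itself and its reverse complement) is scored by the PBM enrichment score (E-score), a modified Wilcoxon-Mann-Whitney statistic from -0.5 to +0.5, computed with the Universal PBM Analysis Suite. Scale: above 0.35 generally sequence-specific binding.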

| Sequence | PBM E-score |
| --- | --- |
| CCTGATTA | 0.162 |
| CCGACTGA | 0.011 |
| AATAGGGT | -0.146 |
| CCGACGCC | -0.229 |
| CACACTCA | 0.213 |
| CCCGGGCC | -0.304 |
| ATGTGGCG | -0.0935 |
| GCCCTCGC | -0.161 |
| GTGTATAA | -0.123 |
| AGCCTCCC | -0.204 |
| ATACACTA | 0.0538 |
| AATCCTTA | -0.00948 |
| CCTTTAAC | 0.196 |
| GAAGTCAA | 0.158 |
| AGCCTTTC | -0.176 |
| ATTCAACA | 0.119 |
| ATAGTCAT | 0.198 |
| AAAAGCCT | -0.15 |
| CCCCCCCG | -0.328 |
| ATTCGCGA | 0.094 |
| CACGCTCC | -0.00778 |
| CAGATATA | 0.167 |

19 entries from above, comma-delimited.
Sequence,PBM E-score
CCTGATTA,0.162
AATAGGGT,-0.146
CCGACGCC,-0.229
CACACTCA,0.213
ATGTGGCG,-0.0935
GCCCTCGC,-0.161
GTGTATAA,-0.123
ATACACTA,0.0538
AATCCTTA,-0.00948
CCTTTAAC,0.196
GAAGTCAA,0.158
AGCCTTTC,-0.176
ATTCAACA,0.119
ATAGTCAT,0.198
AAAAGCCT,-0.15
CCCCCCCG,-0.328
ATTCGCGA,0.094
CACGCTCC,-0.00778
CAGATATA,0.167

Remaining list, next part:

| Sequence | PBM E-score |
| --- | --- |
| CGAATCCG | -0.0867 |
| CGCATGTA | 0.135 |
| CGTACAAG | 0.357 |
| CTAATTCA | 0.0988 |
| AGTTATAA | -0.0216 |
| ATGTCGTG | 0.277 |
| CAGTGAAA | 0.0736 |
| ATGTCTGA | 0.0406 |
| ACTGTTAC | -0.108 |
| AAGCTCGA | -0.05 |
| CCATTTTC | 0.178 |
| AGTTATGC | 0.0932 |
| ACAGCACC | -0.107 |
| ACCGCCTA | -0.0219 |
| ACCAAGCA | -0.134 |
| ACAGCCGG | -0.0292 |
| CATATTAA | 0.315 |
| GGTTTGGA | 0.0886 |
| CGGGTCCC | -0.349 |
| GTCCTCAA | 0.0163 |
| AATTCTGA | -0.0156 |
| TAAGCACA | 0.0424 |

| Sequence | PBM E-score |
| --- | --- |
| GTGAGGGA | -0.0867 |
| ATACACTC | 0.126 |
| CTCAAGGC | -0.267 |
| CAACGTCG | 0.143 |
| GACGCGGA | -0.277 |
| ATGTGCTC | 0.133 |
| ATCCCATG | -0.14 |
| GGTCAGCA | -0.0516 |
| GCGTATAC | -0.0117 |
| CCGCATAC | 0.00647 |
| ATCCAGCA | -0.012 |
| CGTTGTAC | 0.217 |
| AGGAGAAC | -0.188 |
| ATGGAGTA | -0.0199 |
| CGCTAGTC | -0.0644 |
| GGCAGAAA | 0.132 |
| CTCGTCTA | -0.0652 |
| AAGTACAC | 0.00665 |
| ATAGGCCC | -0.356 |
| AAGCAATA | -0.161 |
| AACGGCTA | 0.193 |
| GTCCTCAC | 0.0512 |

| Sequence | PBM E-score |
| --- | --- |
| AGTTGGGG | -0.00162 |
| CGCACATA | -0.139 |
| CCAGGCCG | 0.105 |
| AGAGAGCT | -0.278 |
| CAAAAGGA | 0.11 |
| GACGAACA | 0.253 |
| ATTCAAGA | 0.058 |
| ATCCAAAT | -0.0232 |
| TGACTCAA | 0.184 |
| GAAAACCA | -0.112 |
| ATCGCATA | 0.0573 |
| ATGGGATA | -0.152 |
| GGTCCTTA | -0.113 |
| AGATTCCG | 0.183 |
| ACTGCTCA | 0.143 |
| CCCTCTTC | -0.156 |
| ATTCCCAA | 0.0326 |
| GCGGGCCC | -0.138 |
| ACATTAAC | 0.0514 |
| GTTTTTCA | -0.0368 |

Pulled one by one from the entries so far:

| Sequence | PBM E-score |
| --- | --- |
| ATCGCATA | 0.0573 |
| AGATTCCG | 0.183 |
